Compound in this test: Nc1ncnc2c1ncn2[C@@H]1O[C@H](COP(=O)(O)OP(=O)(O)OP(=O)(O)O)[C@@H](O)[C@H]1O [adenosine triphosphate]
Description: NP40-soluble protein abundance relative to vehicle (solubility fold change) (ratio); higher = more soluble protein in presence of ATP. A digest of the protocol: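 Values are fold changes against the detergent-processed vehicle, based on vsn-normalised intensities. Jurkat crude lysate was treated at eight concentrations from 0.1 to 10 mM (10 min at room temperature, then 3 min at 37 °C), solubilised with 0.8% NP40 and benzonase, ultracentrifuged and analysed by TMT-labelled LC-MS/MS over three independent experiments.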

The chains behind the UniProt entries cited, without tags or fusion partners. Where a name states a change or a piece, a line headed by the entry shows the natural chain unless it says otherwise.
UniProt Q99547: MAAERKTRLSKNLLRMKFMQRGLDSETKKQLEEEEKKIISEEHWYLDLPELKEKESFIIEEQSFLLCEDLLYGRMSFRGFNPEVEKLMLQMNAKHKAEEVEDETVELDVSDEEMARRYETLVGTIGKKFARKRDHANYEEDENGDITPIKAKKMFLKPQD
UniProt Q5JPH6: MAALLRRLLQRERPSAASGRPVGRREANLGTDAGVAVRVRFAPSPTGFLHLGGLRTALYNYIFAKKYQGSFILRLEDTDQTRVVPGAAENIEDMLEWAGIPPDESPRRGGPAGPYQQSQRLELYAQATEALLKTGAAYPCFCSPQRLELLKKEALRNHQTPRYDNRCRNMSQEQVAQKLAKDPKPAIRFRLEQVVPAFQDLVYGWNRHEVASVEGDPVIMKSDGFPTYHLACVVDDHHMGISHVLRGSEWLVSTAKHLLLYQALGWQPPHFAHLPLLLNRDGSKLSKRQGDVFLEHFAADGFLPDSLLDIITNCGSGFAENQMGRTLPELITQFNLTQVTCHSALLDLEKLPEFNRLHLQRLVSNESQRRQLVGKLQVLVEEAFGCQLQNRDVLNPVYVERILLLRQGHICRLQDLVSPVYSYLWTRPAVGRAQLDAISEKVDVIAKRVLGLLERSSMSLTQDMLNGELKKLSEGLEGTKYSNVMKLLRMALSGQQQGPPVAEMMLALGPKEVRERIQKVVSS
UniProt Q9UQ35: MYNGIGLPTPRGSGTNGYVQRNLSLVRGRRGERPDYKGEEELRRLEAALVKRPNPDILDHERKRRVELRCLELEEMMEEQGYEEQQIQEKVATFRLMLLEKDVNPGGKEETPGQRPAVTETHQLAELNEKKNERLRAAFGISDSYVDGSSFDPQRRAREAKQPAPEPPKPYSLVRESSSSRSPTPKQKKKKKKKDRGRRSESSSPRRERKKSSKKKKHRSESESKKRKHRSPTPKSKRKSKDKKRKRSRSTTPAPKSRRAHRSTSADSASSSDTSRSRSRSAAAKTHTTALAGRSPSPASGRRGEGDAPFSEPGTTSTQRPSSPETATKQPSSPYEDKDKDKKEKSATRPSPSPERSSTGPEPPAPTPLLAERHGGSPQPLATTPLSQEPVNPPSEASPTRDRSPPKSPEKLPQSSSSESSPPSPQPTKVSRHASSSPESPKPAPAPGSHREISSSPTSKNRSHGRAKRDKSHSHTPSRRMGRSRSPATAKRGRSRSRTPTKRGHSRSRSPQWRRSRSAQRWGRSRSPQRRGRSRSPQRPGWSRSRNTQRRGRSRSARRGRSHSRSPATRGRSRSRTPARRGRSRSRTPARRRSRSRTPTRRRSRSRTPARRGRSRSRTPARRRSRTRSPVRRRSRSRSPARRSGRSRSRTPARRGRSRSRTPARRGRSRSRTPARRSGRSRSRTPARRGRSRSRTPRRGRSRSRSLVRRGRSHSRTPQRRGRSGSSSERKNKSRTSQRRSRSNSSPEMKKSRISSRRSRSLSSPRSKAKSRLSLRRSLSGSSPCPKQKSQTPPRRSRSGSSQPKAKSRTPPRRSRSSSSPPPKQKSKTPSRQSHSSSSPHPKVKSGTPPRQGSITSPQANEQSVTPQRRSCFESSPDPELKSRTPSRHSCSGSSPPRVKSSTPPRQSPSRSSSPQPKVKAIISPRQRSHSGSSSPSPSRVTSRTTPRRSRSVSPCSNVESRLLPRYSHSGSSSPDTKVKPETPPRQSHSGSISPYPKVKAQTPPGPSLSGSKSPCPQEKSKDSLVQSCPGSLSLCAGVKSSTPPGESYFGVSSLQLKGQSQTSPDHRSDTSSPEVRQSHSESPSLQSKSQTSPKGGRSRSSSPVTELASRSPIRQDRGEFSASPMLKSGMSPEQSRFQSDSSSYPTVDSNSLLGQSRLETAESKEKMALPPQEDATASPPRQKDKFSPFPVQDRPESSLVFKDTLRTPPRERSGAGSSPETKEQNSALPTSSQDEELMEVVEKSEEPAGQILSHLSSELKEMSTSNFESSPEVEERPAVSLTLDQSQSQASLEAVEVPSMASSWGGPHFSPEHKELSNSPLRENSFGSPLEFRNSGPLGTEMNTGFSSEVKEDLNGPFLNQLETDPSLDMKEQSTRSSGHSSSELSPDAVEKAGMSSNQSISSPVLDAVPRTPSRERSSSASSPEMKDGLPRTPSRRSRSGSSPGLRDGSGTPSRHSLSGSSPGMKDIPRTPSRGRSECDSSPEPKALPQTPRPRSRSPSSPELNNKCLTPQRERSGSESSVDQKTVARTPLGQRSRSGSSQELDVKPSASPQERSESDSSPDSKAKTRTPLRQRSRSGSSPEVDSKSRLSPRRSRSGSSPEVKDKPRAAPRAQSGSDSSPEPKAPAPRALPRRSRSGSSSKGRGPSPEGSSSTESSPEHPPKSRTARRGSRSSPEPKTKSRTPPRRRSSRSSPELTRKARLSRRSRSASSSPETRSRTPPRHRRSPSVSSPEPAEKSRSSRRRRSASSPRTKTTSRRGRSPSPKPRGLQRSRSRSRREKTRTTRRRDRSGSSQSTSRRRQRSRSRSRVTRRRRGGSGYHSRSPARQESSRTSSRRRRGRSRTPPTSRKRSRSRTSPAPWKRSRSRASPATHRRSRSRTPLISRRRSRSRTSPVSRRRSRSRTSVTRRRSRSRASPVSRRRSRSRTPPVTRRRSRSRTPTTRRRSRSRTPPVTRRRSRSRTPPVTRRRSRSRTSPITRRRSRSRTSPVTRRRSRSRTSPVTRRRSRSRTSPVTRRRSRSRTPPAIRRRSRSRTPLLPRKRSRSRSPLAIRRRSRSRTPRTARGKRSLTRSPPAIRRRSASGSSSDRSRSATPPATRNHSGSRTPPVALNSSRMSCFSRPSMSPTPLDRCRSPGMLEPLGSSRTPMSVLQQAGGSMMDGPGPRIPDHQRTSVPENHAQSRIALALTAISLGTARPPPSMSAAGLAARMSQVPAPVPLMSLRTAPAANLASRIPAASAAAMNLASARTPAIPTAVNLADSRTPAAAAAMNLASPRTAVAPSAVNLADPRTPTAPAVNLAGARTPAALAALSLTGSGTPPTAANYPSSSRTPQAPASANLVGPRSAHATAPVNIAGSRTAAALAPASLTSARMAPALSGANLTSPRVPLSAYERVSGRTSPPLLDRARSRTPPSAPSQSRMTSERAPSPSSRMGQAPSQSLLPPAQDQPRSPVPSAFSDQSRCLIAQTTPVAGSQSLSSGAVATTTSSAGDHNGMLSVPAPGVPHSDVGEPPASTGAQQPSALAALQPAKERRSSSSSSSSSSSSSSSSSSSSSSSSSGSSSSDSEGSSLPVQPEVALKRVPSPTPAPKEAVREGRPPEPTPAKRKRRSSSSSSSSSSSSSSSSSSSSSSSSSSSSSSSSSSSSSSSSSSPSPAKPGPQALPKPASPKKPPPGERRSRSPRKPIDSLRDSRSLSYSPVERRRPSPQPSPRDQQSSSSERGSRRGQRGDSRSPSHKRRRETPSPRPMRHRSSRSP
UniProt Q96G21: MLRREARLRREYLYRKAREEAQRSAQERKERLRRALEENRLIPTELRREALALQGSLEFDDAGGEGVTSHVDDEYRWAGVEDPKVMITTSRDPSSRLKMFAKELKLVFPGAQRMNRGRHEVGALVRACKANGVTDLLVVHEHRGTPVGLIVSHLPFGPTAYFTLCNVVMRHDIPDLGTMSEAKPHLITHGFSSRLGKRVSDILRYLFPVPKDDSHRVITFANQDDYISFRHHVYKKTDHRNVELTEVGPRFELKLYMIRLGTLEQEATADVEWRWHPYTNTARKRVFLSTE
UniProt P55039: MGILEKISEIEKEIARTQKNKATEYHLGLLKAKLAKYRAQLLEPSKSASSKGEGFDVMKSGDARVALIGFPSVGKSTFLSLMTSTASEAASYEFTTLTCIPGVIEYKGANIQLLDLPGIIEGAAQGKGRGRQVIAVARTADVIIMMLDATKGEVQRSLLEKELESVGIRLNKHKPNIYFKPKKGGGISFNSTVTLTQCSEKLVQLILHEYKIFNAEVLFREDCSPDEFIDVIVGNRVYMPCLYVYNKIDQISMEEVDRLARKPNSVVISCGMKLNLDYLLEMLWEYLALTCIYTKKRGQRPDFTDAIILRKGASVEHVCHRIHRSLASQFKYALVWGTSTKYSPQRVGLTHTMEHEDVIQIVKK
UniProt P07947, whole entry, looked up: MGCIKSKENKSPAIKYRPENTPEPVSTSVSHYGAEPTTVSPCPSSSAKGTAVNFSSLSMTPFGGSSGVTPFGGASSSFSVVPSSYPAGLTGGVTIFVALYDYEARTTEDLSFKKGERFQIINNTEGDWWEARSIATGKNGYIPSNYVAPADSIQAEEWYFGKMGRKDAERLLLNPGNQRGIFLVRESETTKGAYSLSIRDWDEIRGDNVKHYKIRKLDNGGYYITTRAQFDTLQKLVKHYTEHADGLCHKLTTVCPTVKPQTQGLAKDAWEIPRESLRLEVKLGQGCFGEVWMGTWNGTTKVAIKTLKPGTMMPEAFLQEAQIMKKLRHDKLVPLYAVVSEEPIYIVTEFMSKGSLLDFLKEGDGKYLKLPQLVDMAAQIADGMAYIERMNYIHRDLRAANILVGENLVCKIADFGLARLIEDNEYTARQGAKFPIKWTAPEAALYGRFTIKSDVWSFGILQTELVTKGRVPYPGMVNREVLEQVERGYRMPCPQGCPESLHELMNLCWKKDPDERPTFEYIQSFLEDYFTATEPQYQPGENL
UniProt Q01433: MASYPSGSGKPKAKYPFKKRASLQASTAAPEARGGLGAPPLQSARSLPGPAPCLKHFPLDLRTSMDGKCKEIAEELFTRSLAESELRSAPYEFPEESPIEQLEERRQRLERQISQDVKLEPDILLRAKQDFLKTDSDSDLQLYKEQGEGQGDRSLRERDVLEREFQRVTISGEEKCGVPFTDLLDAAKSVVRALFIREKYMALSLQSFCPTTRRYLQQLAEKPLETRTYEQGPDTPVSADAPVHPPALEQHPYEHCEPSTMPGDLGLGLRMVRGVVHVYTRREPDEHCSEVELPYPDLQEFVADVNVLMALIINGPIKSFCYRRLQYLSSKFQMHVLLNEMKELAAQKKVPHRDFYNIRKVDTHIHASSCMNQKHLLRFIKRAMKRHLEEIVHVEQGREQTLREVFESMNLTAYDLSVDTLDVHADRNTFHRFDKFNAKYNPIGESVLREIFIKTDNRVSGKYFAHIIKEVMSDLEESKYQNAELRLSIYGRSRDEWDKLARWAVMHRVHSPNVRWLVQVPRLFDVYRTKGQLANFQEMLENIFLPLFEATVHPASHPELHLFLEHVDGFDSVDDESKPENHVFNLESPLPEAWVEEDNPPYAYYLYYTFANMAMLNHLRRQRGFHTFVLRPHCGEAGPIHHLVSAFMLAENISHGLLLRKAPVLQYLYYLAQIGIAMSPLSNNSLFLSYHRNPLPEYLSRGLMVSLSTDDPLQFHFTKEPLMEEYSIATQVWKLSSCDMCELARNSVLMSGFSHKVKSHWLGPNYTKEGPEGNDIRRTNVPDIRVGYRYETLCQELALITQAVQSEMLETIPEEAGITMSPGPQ
UniProt Q93009, whole entry, looked up: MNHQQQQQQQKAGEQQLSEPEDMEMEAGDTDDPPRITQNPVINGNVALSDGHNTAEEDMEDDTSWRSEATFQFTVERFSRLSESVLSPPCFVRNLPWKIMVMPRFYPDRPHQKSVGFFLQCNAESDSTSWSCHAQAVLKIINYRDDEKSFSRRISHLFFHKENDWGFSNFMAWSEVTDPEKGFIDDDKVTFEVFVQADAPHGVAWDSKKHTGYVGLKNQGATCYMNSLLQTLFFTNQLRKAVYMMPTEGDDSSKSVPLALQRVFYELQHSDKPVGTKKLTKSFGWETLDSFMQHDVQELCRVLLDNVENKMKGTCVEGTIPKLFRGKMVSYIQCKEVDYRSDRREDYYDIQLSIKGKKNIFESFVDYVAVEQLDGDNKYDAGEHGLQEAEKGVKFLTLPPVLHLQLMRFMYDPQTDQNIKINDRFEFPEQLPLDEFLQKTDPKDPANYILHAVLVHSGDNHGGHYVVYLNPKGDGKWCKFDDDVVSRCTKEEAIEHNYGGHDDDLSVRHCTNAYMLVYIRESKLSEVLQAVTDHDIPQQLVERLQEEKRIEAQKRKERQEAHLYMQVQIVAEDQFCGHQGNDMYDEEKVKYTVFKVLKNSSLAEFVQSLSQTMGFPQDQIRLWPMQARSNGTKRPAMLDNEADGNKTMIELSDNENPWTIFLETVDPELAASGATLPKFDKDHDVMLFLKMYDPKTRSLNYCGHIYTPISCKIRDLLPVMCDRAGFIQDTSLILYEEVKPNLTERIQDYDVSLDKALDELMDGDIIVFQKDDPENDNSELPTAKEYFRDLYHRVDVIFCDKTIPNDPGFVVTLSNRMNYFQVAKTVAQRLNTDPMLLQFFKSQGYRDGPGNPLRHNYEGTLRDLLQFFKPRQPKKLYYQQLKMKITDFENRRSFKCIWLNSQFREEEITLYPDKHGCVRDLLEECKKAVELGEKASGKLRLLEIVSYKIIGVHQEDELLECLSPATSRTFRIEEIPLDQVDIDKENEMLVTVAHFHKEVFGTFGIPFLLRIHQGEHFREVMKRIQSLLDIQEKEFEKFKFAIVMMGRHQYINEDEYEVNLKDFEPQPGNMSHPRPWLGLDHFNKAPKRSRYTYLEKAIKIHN

± gives the standard deviation of the averaged measurements. The list shows a part of the results, in another mix than the full data. Small differences around the control level are noise.

Regarding “K7EPA3 and related entries (UniProt Q9NX61)”, the NP40-soluble protein abundance (concentration: 0.1mM) turned out to be 1.04 ± 0.062 and the NP40-soluble protein abundance (concentration: 0.5mM) came out at 1 ± 0.034.

Regarding “K7EL60 and related entries (UniProt O75821)”, the NP40-soluble protein abundance (concentration: 0.1mM) worked out at 0.962 ± 0.026 and the NP40-soluble protein abundance (concentration: 0.5mM) is 1.01 ± 0.069.

As for “I3L0K9 and related entries (UniProt Q15027)”, the NP40-soluble protein abundance (concentration: 0.1mM) is 1.03 ± 0.06 and the NP40-soluble protein abundance (concentration: 0.5mM) was 1.03 ± 0.032.

Turning to “J3KPT4 and related entries (UniProt Q9H4I3)”, the NP40-soluble protein abundance (concentration: 0.1mM) was found to be 1.04 ± 0.037 and the NP40-soluble protein abundance (concentration: 0.5mM) was determined as 1.04 ± 0.064.

Turning to “H0YLX2 and related entries (UniProt Q2KHR2)”, the NP40-soluble protein abundance (concentration: 0.1mM) came out at 0.988 ± 0.051 and the NP40-soluble protein abundance (concentration: 0.5mM) was found to be 0.955 ± 0.019.

For the target “J3KSB5 and related entries (UniProt P21359)”, the NP40-soluble protein abundance came to 1.02 ± 0.069 (concentration: 0.1mM) and 1.07 ± 0.12 (concentration: 0.5mM).

“K7EKE6 and related entries (UniProt P36776)”: the NP40-soluble protein abundance worked out at 1.06 ± 0.043 (concentration: 0.1mM) and 1.04 ± 0.035 (concentration: 0.5mM).

On to “H7BYJ1 and related entries (UniProt Q969K3)”, for which the NP40-soluble protein abundance by setting is: (concentration: 0.1mM) 0.969 ± 0.04; (concentration: 0.5mM) 0.931 ± 0.016.

Take “G5E9C2 and related entries (UniProt Q15653)”: the NP40-soluble protein abundance (concentration: 0.1mM) was found to be 0.9994 ± 0.0038 and the NP40-soluble protein abundance (concentration: 0.5mM) was 0.998 ± 0.02.

Take “H3BPZ0 and related entries (UniProt Q6PCT2)”: the NP40-soluble protein abundance was 1.06 ± 0.09 (concentration: 0.1mM) and 1.04 ± 0.088 (concentration: 0.5mM).

On to “H3BM14 and related entries (UniProt Q9Y5A7)”, for which the NP40-soluble protein abundance reads like this: (concentration: 0.1mM) 1 ± 0.06; (concentration: 0.5mM) 0.996 ± 0.053.

For the target “H3BNT4 and related entries (UniProt Q99547)”, the NP40-soluble protein abundance reads like this: (concentration: 0.1mM) 0.958 ± 0.064; (concentration: 0.5mM) 1.03 ± 0.11.

In the case of “H3BTB7 and related entries (UniProt Q5JPH6)”, the NP40-soluble protein abundance (concentration: 0.1mM) turned out to be 0.976 ± 0.047 and the NP40-soluble protein abundance (concentration: 0.5mM) stood at 1.01 ± 0.063.

Turning to “I3L182 and related entries (UniProt Q9UQ35)”, the NP40-soluble protein abundance (concentration: 0.1mM) was 1.02 ± 0.057 and the NP40-soluble protein abundance (concentration: 0.5mM) stood at 1.23 ± 0.045.

For the target “H0YLM8 and related entries (UniProt Q8TDJ6)”, the NP40-soluble protein abundance reads like this: (concentration: 0.1mM) 1.02 ± 0.049; (concentration: 0.5mM) 0.972 ± 0.022.

As to “K4DI92 and related entries (UniProt Q6NW29)”, the NP40-soluble protein abundance came out at 0.925 ± 0.056 (concentration: 0.1mM) and 0.9 ± 0.053 (concentration: 0.5mM).

Turning to “J3KN10 and related entries (UniProt P42356)”, the NP40-soluble protein abundance came to 1.04 ± 0.074 (concentration: 0.1mM) and 1.04 ± 0.056 (concentration: 0.5mM).

As for “H0YGR4 and related entries (UniProt Q9Y3B8)”, the NP40-soluble protein abundance is, setting by setting: (concentration: 0.1mM) 0.945 ± 0.043; (concentration: 0.5mM) 0.946 ± 0.081.

Turning to “H0Y714 and related entries (UniProt Q96G21)”, the NP40-soluble protein abundance by setting is: (concentration: 0.1mM) 0.944 ± 0.14; (concentration: 0.5mM) 0.982 ± 0.19.

Take “I3L397 and related entries (UniProt P63241)”: the NP40-soluble protein abundance was found to be 0.951 ± 0.12 (concentration: 0.1mM) and 0.968 ± 0.051 (concentration: 0.5mM).

For “K7ELL7 and related entries (UniProt P14314)”, the NP40-soluble protein abundance was determined as 0.974 ± 0.026 (concentration: 0.1mM) and 0.97 ± 0.053 (concentration: 0.5mM).

As for “J3QKV7 and related entries (UniProt P55039)”, the NP40-soluble protein abundance reads like this: (concentration: 0.1mM) 1.05 ± 0.078; (concentration: 0.5mM) 1.06 ± 0.077.

For the target “K4DI93 and related entries (UniProt Q13620)”, the NP40-soluble protein abundance turned out to be 0.998 ± 0.08 (concentration: 0.1mM) and 1.02 ± 0.042 (concentration: 0.5mM).

With “J3QRU1 and related entries (UniProt P07947)”, the NP40-soluble protein abundance by setting is: (concentration: 0.1mM) 1.02 ± 0.088; (concentration: 0.5mM) 1.07 ± 0.099.

As for “K7EKG9 and related entries (UniProt Q14CW9)”, the NP40-soluble protein abundance by setting is: (concentration: 0.1mM) 1.03 ± 0.051; (concentration: 0.5mM) 0.984 ± 0.084.

Consider “J3KNS1 and related entries (UniProt Q9UPW5)”, for which the NP40-soluble protein abundance runs as follows: (concentration: 0.1mM) 1.03 ± 0.04; (concentration: 0.5mM) 1.06 ± 0.018.

On to “K7EJB5 and related entries (UniProt P62316)”, for which the NP40-soluble protein abundance runs as follows: (concentration: 0.1mM) 0.961 ± 0.088; (concentration: 0.5mM) 1.03 ± 0.13.

As to “H0YMI4 and related entries (UniProt Q9Y6I4)”, the NP40-soluble protein abundance amounted to 1 ± 0.053 (concentration: 0.1mM) and 0.96 ± 0.032 (concentration: 0.5mM).

As to “H0Y9I3 and related entries (UniProt Q9HAV4)”, the NP40-soluble protein abundance by setting is: (concentration: 0.1mM) 1.02 ± 0.055; (concentration: 0.5mM) 0.998 ± 0.029.

With “K7EJH8 and related entries (UniProt O43707)”, the NP40-soluble protein abundance runs as follows: (concentration: 0.1mM) 0.898 ± 0.053; (concentration: 0.5mM) 0.876 ± 0.066.

As for “H7BYP4 and related entries (UniProt Q9H930)”, the NP40-soluble protein abundance by setting is: (concentration: 0.1mM) 0.965 ± 0.12; (concentration: 0.5mM) 0.931 ± 0.15.

On to “H0Y2P2 and related entries (UniProt Q96IV0)”, for which the NP40-soluble protein abundance was 0.977 ± 0.04 (concentration: 0.1mM) and 0.969 ± 0.032 (concentration: 0.5mM).

With “H0YNP9 and related entries (UniProt Q8N4P3)”, the NP40-soluble protein abundance reads like this: (concentration: 0.1mM) 1.12 ± 0.31; (concentration: 0.5mM) 1.06 ± 0.14.

Consider “J9JIE6 and related entries (UniProt Q9UM00)”, for which the NP40-soluble protein abundance is 0.875 ± 0.074 (concentration: 0.1mM) and 0.913 ± 0.043 (concentration: 0.5mM).

In the case of “J3QLB2 and related entries (UniProt Q8N1S5)”, the NP40-soluble protein abundance came to 0.966 ± 0.067 (concentration: 0.1mM) and 0.991 ± 0.026 (concentration: 0.5mM).

With “H7BZJ3 and related entries (UniProt P30101)”, the NP40-soluble protein abundance runs as follows: (concentration: 0.1mM) 0.936 ± 0.09; (concentration: 0.5mM) 0.961 ± 0.14.

As for “K7EP59 and related entries (UniProt Q15831)”, the NP40-soluble protein abundance is, setting by setting: (concentration: 0.1mM) 0.969 ± 0.12; (concentration: 0.5mM) 1.01 ± 0.084.

As to “J3KNQ1 and related entries (UniProt Q6P2D0)”, the NP40-soluble protein abundance was determined as 1.01 ± 0.068 (concentration: 0.1mM) and 1 ± 0.071 (concentration: 0.5mM).

On to “M0QXZ5 and related entries (UniProt Q96B54)”, for which the NP40-soluble protein abundance is, setting by setting: (concentration: 0.1mM) 0.941 ± 0.042; (concentration: 0.5mM) 0.975 ± 0.19.

In the case of “H0Y360 and related entries (UniProt Q01433)”, the NP40-soluble protein abundance turned out to be 1.02 ± 0.05 (concentration: 0.1mM) and 0.993 ± 0.029 (concentration: 0.5mM).

For the target “H3BQD1 and related entries (UniProt Q93009)”, the NP40-soluble protein abundance is, setting by setting: (concentration: 0.1mM) 1.07 ± 0.089; (concentration: 0.5mM) 1.06 ± 0.083.

Turning to “H0Y5M1 and related entries (UniProt P04844)”, the NP40-soluble protein abundance stood at 1.06 ± 0.13 (concentration: 0.1mM) and 1.07 ± 0.097 (concentration: 0.5mM).

Consider “H3BSM7 and related entries (UniProt Q96GQ5)”, for which the NP40-soluble protein abundance (concentration: 0.1mM) was determined as 1.04 ± 0.061 and the NP40-soluble protein abundance (concentration: 0.5mM) amounted to 1.03 ± 0.051.

(Values after the supplement of paper PMC6411743.)
